Experimental data as given in US20040171566A1, “Antisense modulation of p38 mitogen activated protein kinase expression” (priority 1999, published 2004).
Some of these results come from one statement about several compounds together.

These sequences were tested on human p38β mRNA (assay: Inhibition of human p38β mRNA expression in HUVEC cells, Northern blot). Conditions: 100 nM oligonucleotide in 10 μg/ml LIPOFECTIN, four hours.
Assay type: cell-based
Experimental: The human Jurkat T-cell line (American Type Culture Collection, Manassas, Va.) was maintained in RPMI 1640 growth media supplemented with 10% fetal bovine serum (FBS; Hyclone, Logan, Utah). HUVEC cells (Clonetics, San Diego, Calif.) were cultivated in endothelial basal media supplemented with 10% FBS (Hyclone, Logan, Utah).
HUVEC cells were allowed to reach 75% confluency prior to use. The cells were washed twice with warm (37° C.) OPTI-MEM™ (Life Technologies). The cells were incubated in the presence of the appropriate culture medium, without the growth factors added, and the oligonucleotide formulated in LIPOFECTIN7 (Life Technologies), a 1:1 (w/w) liposome formulation of the cationic lipid N-[1-(2,3-dioleyloxy)propyl]-n,n,n-trimethylammonium chloride (DOTMA), and dioleoyl phosphotidylethanolamine (DOPE) in membrane filtered water. HUVEC cells were treated with 100 nM oligonucleotide in 10 μg/ml LIPOFECTIN7. Treatment was for four hours.
Total mRNA was isolated using the RNEASY7 Mini Kit (Qiagen, Valencia, Calif.; similar kits from other manufacturers may also be used), separated on a 1% agarose gel, transferred to HYBOND™-N+ membrane (Amersham Pharmacia Biotech, Piscataway, N.J.), a positively charged nylon membrane, and probed. p38 MAPK probes were made using the Prime-A-Gene7 kit (Promega Corporation, Madison, Wis.), a random primer labeling kit, using mouse p38α or p38β cDNA as a template. A glyceraldehyde 3-phosphate dehydrogenase (G3PDH) probe was purchased from Clontech (Palo Alto, Calif.), Catalog Number 9805-1. The fragments were purified from low-melting temperature agarose, as described in Maniatis, T., et al., Molecular Cloning: A Laboratory Manual, 1989. The G3PDH probe was labeled with REDIVUE™ ^32P-dCTP (Amersham Pharmacia Biotech, Piscataway, N.J.) and Strip-EZ labelling kit (Ambion, Austin, Tex.). mRNA was quantitated by a PhosphoImager (Molecular Dynamics, Sunnyvale, Calif.).
Every oligonucleotide tested gave at least 50% inhibition.
Oligonucleotides 17893 (SEQ ID NO. 27), 17899 (SEQ ID NO:33), 17904 (SEQ ID NO. 38), and 17907 (SEQ ID NO. 41) were chosen for dose response studies. HUVEC cells were cultured and treated as described in Example 2 except that the oligonucleotide concentration was varied as shown in Table 6. The Lipofectin7/Oligo ratio was maintained at 3 μg Lipofectin7/100 nM oligo, per ml. mRNA was measured by Northern blot as described in Example 2.

Sequence	% mRNA INHIBITION
AACGCTCTCATCATATGGCT (chemistry not fully specified) [ISIS 17903]	> 85%
AGTGCACGCTCATCCACACG (chemistry not fully specified) [ISIS 17909]	> 85%
ATCCTGAGCTCACAGTCCTC (chimeric, phosphorothioate, further chemistry not given here) [ISIS 17899]	> 85%
ATGATGCGCTTCAGCTGGTC (chemistry not fully specified) [ISIS 17901]	> 85%
CAGCACCTCACTGCTCAATC (chemistry not fully specified) [ISIS 17904]	> 85%
CCGAACAGACGGAGCCGTAT (chemistry not fully specified) [ISIS 17894]	> 85%
CCTACACATGGCAAGCACAT (chemistry not fully specified) [ISIS 17907]	> 85%
TCCAGGCTGAGCAGCTCTAA (chemistry not fully specified) [ISIS 17908]	> 85%
TGCGGCACCTCCCACACGGT (chimeric, phosphorothioate, further chemistry not given here) [ISIS 17893]	> 85%
TTCAGCTCCTGCCGGTAGAA (chemistry not fully specified) [ISIS 17892]	> 85%

These sequences were tested on human p38α mRNA (assay: Human p38α mRNA expression in T-24 cells). Conditions: initial screen.

Sequence	inhibition (human p38α mRNA)
ACGCTCGGGCACCTCCCAGA (phosphorothioate gapmer, further chemistry not given here) [ISIS 100861]	> 40%
AGCTTCTTCACTGCCACACG (phosphorothioate gapmer, further chemistry not given here) [ISIS 100862]	> 40%
CACGTAGCCTGTCATTTCAT (chimeric deoxy gapped, phosphorothioate, further chemistry not given here) [ISIS 100868]	> 40%
CATCATCAGGATCGTGGTAC (chimeric deoxy gapped, phosphorothioate, further chemistry not given here) [ISIS 100873]	> 40%
CTCACAGTCTTCATTCACAG (chimeric deoxy gapped, phosphorothioate, further chemistry not given here) [ISIS 100867]	> 40%
GGCACAAAGCTGATGACTTC (chimeric deoxy gapped, phosphorothioate, further chemistry not given here) [ISIS 100875]	> 40%
TATGGTCTGTACCAGGAAAC (chimeric deoxy gapped, phosphorothioate, further chemistry not given here) [ISIS 100870]	> 40%
TTCTCTTATCTGAGTCCAAT (chimeric deoxy gapped, phosphorothioate, further chemistry not given here) [ISIS 100872]	> 40%

What follows are sequences tested on human p38β mRNA (assay: Human p38β mRNA expression in T-24 cells). Conditions: initial screen.

Sequence	inhibition (human p38β mRNA)
ATCCTGAGCTCACAGTCCTC (chimeric, phosphorothioate, further chemistry not given here) [ISIS 17899]	> 40%
TGCGGCACCTCCCACACGGT (chimeric, phosphorothioate, further chemistry not given here) [ISIS 17893]	> 40%
